Results from PubChem BioAssay (NCATS).
This list was built around the results that the source calls inconclusive (neither active nor inactive); the mix of calls is not that of the screen. A potency beside an inconclusive call is a rough fit, not a confirmed value. The source made the active and inactive calls. The call rests on the fitted dose curve; in most records, active means well fitted inhibition curve with a large enough effect; inconclusive means small, poorly fitted or top-dose-only effect; inactive means no such curve, though single readings can be large or run the other way.

Sequences of proteins named here, by UniProt entry; tags and fusion partners are left off. A change or cut given only in a name is not applied to a line headed by its entry.
UniProt P07378: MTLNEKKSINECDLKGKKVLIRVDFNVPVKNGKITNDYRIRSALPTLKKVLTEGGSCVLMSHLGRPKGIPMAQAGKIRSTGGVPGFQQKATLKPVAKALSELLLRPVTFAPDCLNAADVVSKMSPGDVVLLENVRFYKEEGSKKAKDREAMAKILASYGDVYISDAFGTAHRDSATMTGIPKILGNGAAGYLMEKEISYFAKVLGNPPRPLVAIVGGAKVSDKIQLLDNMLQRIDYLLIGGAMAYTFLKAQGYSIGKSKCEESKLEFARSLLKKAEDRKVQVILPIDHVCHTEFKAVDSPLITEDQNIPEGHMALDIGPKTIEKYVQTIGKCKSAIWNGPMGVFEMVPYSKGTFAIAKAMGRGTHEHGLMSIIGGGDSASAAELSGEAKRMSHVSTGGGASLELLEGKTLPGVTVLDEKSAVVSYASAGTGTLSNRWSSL

molecular target: Phosphoglycerate kinase, glycosomal (Trypanosoma brucei brucei) (UniProt P07378); test: qHTS for inhibitors of Phosphogylcerate Kinase: Hit Validation Screen (AID 686980); settings: TbPGK coupled GAPDH assay, Kinase-Glo luminescence; series mostly up to 57.5 µM; activity change, negative = inhibition: at the top concentration; on potency: nearly all actives have a fitted effect of over 65% in size
In short: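 Recombinant glycosomal PGK reaction used 1,3-bisphosphoglycerate generated in-well by GAPDH (100nM final) in 100mM TEA pH 7.6, 5mM MgCl2, 0.01% Tween-20. After 60 minutes at room temperature, ATP was read by Kinase-Glo Plus luminescence end-point.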
Potency means the concentration at half of the fitted maximal effect.

Potency, inconclusive:
CCCCNS(=O)(=O)c1ccc2nc(NC(=O)c3cccnc3)sc2c1 29.1 µM [inhibitor, partial curve]
C=C(C)C(=O)Nc1ccc2c(c1)OCCOCCOCCO2 9.19 µM [inhibitor, partial curve]
O=c1c(OC2OC(CO)C(O)C(O)C2O)c(-c2ccc(O)c(O)c2)oc2cc(O)cc(O)c12 (centres undefined) 10.3 µM [inhibitor, full curve]
COc1ccc(B(O)O)c(CN2CCN(C(=O)OC(C)(C)C)CC2)c1 20.6 µM [inhibitor, partial curve]
Cc1ccc(S(=O)(=O)C(CNC(=O)COc2ccccc2)c2cccs2)cc1 (centres undefined) 5.8 µM [inhibitor, full curve]
CCOc1ccc(NC(=O)CCS(=O)(=O)c2ccc(Br)cc2)cc1 18.3 µM [inhibitor, partial curve]

Activity change, negative = inhibition, inactive:
Cc1ccc(NC(=S)N2CCN(CCN3C(=O)c4cccc5cccc(c45)C3=O)CC2)cc1 3.83%
O=C(NCc1ccccc1)c1ccc(NC(=O)C2CCCC2)cc1 1.4%
Cc1cc(NC(=O)CSc2ccc(-c3nc4cc(C)c(C)cc4[nH]3)cn2)no1 4.94%
